{"source": "the supplement of paper PMC8728848", "experiment_in_all_cases": "glycan array binding signal (z-score within array); higher = stronger binding", "details_in_all_cases": "glycan notation: IUPAC condensed, linker removed", "key": {"[1]": {"biological_target": "Neu5Ac(a2-6)Gal(b1-4)GlcNAc(b1-2)Man(a1-3)[Neu5Ac(a2-3)Gal(b1-4)GlcNAc(b1-2)Man(a1-6)]Man(b1-4)GlcNAc(b1-4)GlcNAc", "how_it_was_run": "(§1)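 Negative Z-scores can be read as non-binding. The Z-score is calculated within each array and then averaged across arrays of one protein sequence at different concentrations or buffers and across linkers. Arrays, 3228 in all, were curated from the Consortium for Functional Glycomics database and kept only where the protein sequence was available.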"}, "[2]": {"biological_target": "Neu5Ac(a2-6)Gal(b1-4)GlcNAc(b1-2)Man(a1-3)[Neu5Ac(a2-6)Gal(b1-4)GlcNAc(b1-2)Man(a1-6)]Man(b1-4)GlcNAc(b1-4)GlcNAc", "how_it_was_run": "as §1"}, "[3]": {"biological_target": "Neu5Ac(a2-6)Gal(b1-4)GlcNAc(b1-2)Man(a1-3)[Neu5Ac(a2-6)Gal(b1-4)GlcNAc(b1-2)Man(a1-6)]Man(b1-4)GlcNAc(b1-4)[Fuc(a1-6)]GlcNAc", "how_it_was_run": "as §1"}, "[4]": {"biological_target": "Neu5Ac(a2-6)Gal(b1-4)GlcNAc(b1-2)Man(a1-6)Man(b1-4)GlcNAc(b1-4)GlcNAc", "how_it_was_run": "as §1"}, "[5]": {"biological_target": "Neu5Ac(a2-6)Gal(b1-4)GlcNAc(b1-2)Man(a1-6)[Gal(b1-4)GlcNAc(b1-2)Man(a1-3)]Man(b1-4)GlcNAc(b1-4)GlcNAc", "how_it_was_run": "as §1"}, "[6]": {"biological_target": "Neu5Ac(a2-6)Gal(b1-4)GlcNAc(b1-2)Man(a1-6)[GlcNAc(b1-2)Man(a1-3)]Man(b1-4)GlcNAc(b1-4)GlcNAc", "how_it_was_run": "as §1"}, "[7]": {"biological_target": "Neu5Ac(a2-6)Gal(b1-4)GlcNAc(b1-2)Man(a1-6)[Man(a1-3)]Man(b1-4)GlcNAc(b1-4)GlcNAc", "how_it_was_run": "as §1"}, "[8]": {"biological_target": "Neu5Ac(a2-6)Gal(b1-4)GlcNAc(b1-2)[Neu5Ac(a2-6)Gal(b1-4)GlcNAc(b1-4)]Man(a1-3)[GlcNAc(b1-4)][Neu5Ac(a2-6)Gal(b1-4)GlcNAc(b1-2)[Neu5Ac(a2-6)Gal(b1-4)GlcNAc(b1-6)]Man(a1-6)]Man(b1-4)GlcNAc(b1-4)GlcNAc", "how_it_was_run": "as §1"}, "[9]": {"biological_target": "Neu5Ac(a2-6)Gal(b1-4)GlcNAc(b1-2)[Neu5Ac(a2-6)Gal(b1-4)GlcNAc(b1-4)]Man(a1-3)[GlcNAc(b1-4)][Neu5Ac(a2-6)Gal(b1-4)GlcNAc(b1-4)Man(a1-6)]Man(b1-4)GlcNAc(b1-4)GlcNAc", "how_it_was_run": "as §1"}, "[10]": {"biological_target": "Neu5Ac(a2-6)Gal(b1-4)GlcNAc(b1-2)[Neu5Ac(a2-6)Gal(b1-4)GlcNAc(b1-6)]Man(a1-6)[Neu5Ac(a2-6)Gal(b1-4)GlcNAc(b1-2)Man(a1-3)][GlcNAc(b1-4)]Man(b1-4)GlcNAc(b1-4)GlcNAc", "how_it_was_run": "as §1"}, "[11]": {"biological_target": "Neu5Ac(a2-6)Gal(b1-4)GlcNAc(b1-3)Gal(b1-3)GlcNAc", "how_it_was_run": "as §1"}, "[12]": {"biological_target": "Neu5Ac(a2-6)Gal(b1-4)GlcNAc(b1-3)Gal(b1-4)GlcNAc", "how_it_was_run": "as §1"}, "[13]": {"biological_target": "Neu5Ac(a2-6)Gal(b1-4)GlcNAc(b1-3)Gal(b1-4)GlcNAc(b1-2)Man(a1-3)[Neu5Ac(a2-6)Gal(b1-4)GlcNAc(b1-3)Gal(b1-4)GlcNAc(b1-2)Man(a1-6)]GalNAc", "how_it_was_run": "as §1"}, "[14]": {"biological_target": "Neu5Ac(a2-6)Gal(b1-4)GlcNAc(b1-3)Gal(b1-4)GlcNAc(b1-3)Gal(b1-4)GlcNAc", "how_it_was_run": "as §1"}, "[15]": {"biological_target": "Neu5Ac(a2-6)Gal(b1-4)GlcNAc(b1-3)Gal(b1-4)GlcNAc(b1-3)Gal(b1-4)GlcNAc(b1-2)Man(a1-3)[Neu5Ac(a2-6)Gal(b1-4)GlcNAc(b1-3)Gal(b1-4)GlcNAc(b1-3)Gal(b1-4)GlcNAc(b1-2)Man(a1-6)]GalNAc", "how_it_was_run": "as §1"}, "[16]": {"biological_target": "Neu5Ac(a2-6)Gal(b1-4)GlcNAc(b1-3)Gal(b1-4)GlcNAc(b1-3)GalNAc", "how_it_was_run": "as §1"}, "[17]": {"biological_target": "Neu5Ac(a2-6)Gal(b1-4)GlcNAc(b1-3)Gal(b1-4)GlcNAc(b1-3)[Neu5Ac(a2-6)Gal(b1-4)GlcNAc(b1-3)Gal(b1-4)GlcNAc(b1-6)]GalNAc", "how_it_was_run": "as §1"}, "[18]": {"biological_target": "Neu5Ac(a2-6)Gal(b1-4)GlcNAc(b1-3)Gal(b1-4)GlcNAc(b1-6)[Gal(b1-3)]GalNAc", "how_it_was_run": "as §1"}, "[19]": {"biological_target": "Neu5Ac(a2-6)Gal(b1-4)GlcNAc(b1-3)Gal(b1-4)[Fuc(a1-3)]GlcNAc(b1-3)Gal(b1-4)[Fuc(a1-3)]GlcNAc", "how_it_was_run": "as §1"}, "[20]": {"biological_target": "Neu5Ac(a2-6)Gal(b1-4)GlcNAc(b1-3)GalNAc", "how_it_was_run": "as §1"}, "[21]": {"biological_target": "Neu5Ac(a2-6)Gal(b1-4)GlcNAc(b1-3)[Neu5Ac(a2-6)Gal(b1-4)GlcNAc(b1-6)]GalNAc", "how_it_was_run": "as §1"}, "[22]": {"biological_target": "Neu5Ac(a2-6)Gal(b1-4)GlcNAc(b1-6)GalNAc", "how_it_was_run": "as §1"}, "[23]": {"biological_target": "Neu5Ac(a2-6)Gal(b1-4)GlcNAc(b1-6)[Gal(b1-3)GlcNAc(b1-3)]Gal(b1-4)Glc", "how_it_was_run": "as §1"}, "[24]": {"biological_target": "Neu5Ac(a2-6)Gal(b1-4)GlcNAc(b1-6)[Gal(b1-3)]GalNAc", "how_it_was_run": "as §1"}, "[25]": {"biological_target": "Neu5Ac(a2-6)Gal(b1-4)GlcNAc6S", "how_it_was_run": "as §1"}, "Neu5Ac(a2-6)GalNAc": {"biological_target": "Neu5Ac(a2-6)GalNAc", "how_it_was_run": "as §1"}, "[26]": {"biological_target": "Neu5Ac(a2-6)GalNAc(b1-4)GlcNAc", "how_it_was_run": "as §1"}, "[27]": {"biological_target": "Neu5Ac(a2-6)GalNAc(b1-4)GlcNAc6S", "how_it_was_run": "as §1"}, "[28]": {"biological_target": "Neu5Ac(a2-6)GlcNAc(b1-4)GlcNAc", "how_it_was_run": "as §1"}, "[29]": {"biological_target": "Neu5Ac(a2-6)GlcNAc(b1-4)GlcNAc(b1-4)GlcNAc", "how_it_was_run": "as §1"}}, "note": "The other results are listed elsewhere or left out.", "data": [{"binder": "PX9961M-bvu-482-23-482 (Bacteroides vulgatus) (protein) WLDLAPSTQVDTETSINVLSDIEFTLNGIYSTMQSSDAYSGRLVYYGDVTGDDMQAVSSTKRTGNYYRFNFTKDNGPSSHWSYLYSIIQNCNLILMNVDKLSIDEDETEYKNDLKGQALAIRGMALFDLTRIFGYPYLKDNGASLGVPIVKELSTIDSKPARNTVAECYTEIISDLKNSTELLSGDFNKGKVNRWAAMTLLSRVYLYKGEYNEALTMAENAIKGAEKEGYALWTNEEYPTAWGNDASASNPGEILFEIVNLTTDSPGKESMGYLNSYNGYDDMCITCSFYQLLKKDPKDVRLKILSFDKKYYAYVNKYQPQQGENITDANIPLIRLSEAYLNAAEAAVQTGDNAKAVKYLNSIVQRANPENSVEGKTLTLENVLDERRKELVAEGHRMYDVIRNGMTVKRIDVKDSDINKTKHNTAYMEYDWNFHKILLPIPKKEMDANPNMKQNPGYVD", "values": [{"measurement": "glycan array binding signal (z-score)", "setting": "[1]", "result": 0.515}, {"measurement": "glycan array binding signal (z-score)", "setting": "[2]", "result": 0.173}, {"measurement": "glycan array binding signal (z-score)", "setting": "[3]", "result": 0.138}, {"measurement": "glycan array binding signal (z-score)", "setting": "[4]", "result": 0.132}, {"measurement": "glycan array binding signal (z-score)", "setting": "[5]", "result": -0.934}, {"measurement": "glycan array binding signal (z-score)", "setting": "[6]", "result": -0.701}, {"measurement": "glycan array binding signal (z-score)", "setting": "[7]", "result": 0.152}, {"measurement": "glycan array binding signal (z-score)", "setting": "[8]", "result": -0.028}, {"measurement": "glycan array binding signal (z-score)", "setting": "[9]", "result": 0.169}, {"measurement": "glycan array binding signal (z-score)", "setting": "[10]", "result": 0.004}, {"measurement": "glycan array binding signal (z-score)", "setting": "[11]", "result": -0.073}, {"measurement": "glycan array binding signal (z-score)", "setting": "[12]", "result": -0.225}, {"measurement": "glycan array binding signal (z-score)", "setting": "[13]", "result": -0.284}, {"measurement": "glycan array binding signal (z-score)", "setting": "[14]", "result": 0.46}, {"measurement": "glycan array binding signal (z-score)", "setting": "[15]", "result": 1.07}, {"measurement": "glycan array binding signal (z-score)", "setting": "[16]", "result": 0.845}, {"measurement": "glycan array binding signal (z-score)", "setting": "[17]", "result": 0.09}, {"measurement": "glycan array binding signal (z-score)", "setting": "[18]", "result": -0.159}, {"measurement": "glycan array binding signal (z-score)", "setting": "[19]", "result": -0.366}, {"measurement": "glycan array binding signal (z-score)", "setting": "[20]", "result": -0.573}, {"measurement": "glycan array binding signal (z-score)", "setting": "[21]", "result": -0.911}, {"measurement": "glycan array binding signal (z-score)", "setting": "[22]", "result": -0.512}, {"measurement": "glycan array binding signal (z-score)", "setting": "[23]", "result": -0.342}, {"measurement": "glycan array binding signal (z-score)", "setting": "[24]", "result": 0.586}, {"measurement": "glycan array binding signal (z-score)", "setting": "[25]", "result": 0.831}, {"measurement": "glycan array binding signal (z-score)", "setting": "Neu5Ac(a2-6)GalNAc", "result": -0.811}, {"measurement": "glycan array binding signal (z-score)", "setting": "[26]", "result": -0.659}, {"measurement": "glycan array binding signal (z-score)", "setting": "[27]", "result": -0.066}, {"measurement": "glycan array binding signal (z-score)", "setting": "[28]", "result": 0.077}, {"measurement": "glycan array binding signal (z-score)", "setting": "[29]", "result": -0.376}]}]}
